Measured values: the supplement of paper PMC9454738
Values joined by “and” are separate entries in the source; they are usually repeats but may differ in a detail not shown here. Equal values may be shown once. Where a name gives a salt, the structure may show the parent alone. ± gives the standard deviation of the averaged measurements. The list shows a part of the results. This data set is noisy: repeats of one test often differ as much as different tests do.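 Assays used MDA-MB-231 triple-negative breast cancer cells and their brain-metastatic line MDA-MB-231BRM, stably carrying empty vector, full-length GLI1 or truncated tGLI1. After 48 h, viability was read with CellTiter-Blue and normalized to 1% DMSO vehicle. tGLI1 selectivity meant viability fell 20% more in tGLI1 cells than in vector and GLI1 cells.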

What was measured:
Experiment in all cases: cell viability relative to vehicle (DMSO) control (fraction); higher = more viable cells (less growth inhibition)
Conditions in all cases: treatment time 48 h
MDA-MB-231 GLI1 = test system: MDA-MB-231 GLI1
MDA-MB-231 Vector = test system: MDA-MB-231 Vector
MDA-MB-231 tGLI1 = test system: MDA-MB-231 tGLI1
MDA-MB-231BRM GLI1 = test system: MDA-MB-231BRM GLI1
MDA-MB-231BRM Vector = test system: MDA-MB-231BRM Vector
MDA-MB-231BRM tGLI1 = test system: MDA-MB-231BRM tGLI1

Structure (SMILES) | cell viability (MDA-MB-231 GLI1; 0.05 µM) | cell viability (MDA-MB-231 GLI1; 0.5 µM) | cell viability (MDA-MB-231 GLI1; 5 µM) | cell viability (MDA-MB-231 Vector; 0.05 µM) | cell viability (MDA-MB-231 Vector; 0.5 µM) | cell viability (MDA-MB-231 Vector; 5 µM) | cell viability (MDA-MB-231 tGLI1; 0.05 µM) | cell viability (MDA-MB-231 tGLI1; 0.5 µM) | cell viability (MDA-MB-231 tGLI1; 5 µM) | cell viability (MDA-MB-231BRM GLI1; 0.05 µM) | cell viability (MDA-MB-231BRM GLI1; 0.5 µM) | cell viability (MDA-MB-231BRM GLI1; 5 µM) | cell viability (MDA-MB-231BRM Vector; 0.05 µM) | cell viability (MDA-MB-231BRM Vector; 0.5 µM) | cell viability (MDA-MB-231BRM Vector; 5 µM) | cell viability (MDA-MB-231BRM tGLI1; 0.05 µM) | cell viability (MDA-MB-231BRM tGLI1; 0.5 µM) | cell viability (MDA-MB-231BRM tGLI1; 5 µM)
Cc1cc(Nc2ncc(Cl)c(Nc3ccccc3S(=O)(=O)C(C)C)n2)c(OC(C)C)cc1C1CCNCC1 | 1.29 | 1.46 | -0.195 | 1.52 | 1.23 | -0.175 | 1.39 | 1.24 | -0.212 | 0.99 | 0.92 | -0.0427 | 1.07 | 0.957 | 0.171 | 0.964 | 0.905 | -0.0814
C=CC(=O)Nc1cccc(Sc2nc(Nc3ccc(N4CCN(C)CC4)cc3)ncc2Cl)c1 | 1.59 | 1.5 | -0.201 | 1.51 | 1.29 | 0.0996 | 1.13 | 1.42 | -0.144 | 1 | 1.01 | 0.831 | 0.929 | 1.1 | 0.862 | 1.05 | 1.03 | 0.8
O=C(Nc1cc(C(F)(F)F)cc(C(F)(F)F)c1)c1cc(Cl)ccc1O | 0.561 | 0.647 | -0.127 | 0.755 | 0.715 | -0.029 | 0.759 | 0.811 | -0.111 | 0.99 | 0.988 | 0.911 | 1.08 | 1.06 | 0.82 | 1.01 | 1.04 | 0.999
CN(C[C@@H]1COCCO1)S(=O)(=O)Nc1ccc2ccc3ncc(-c4cnn(C)c4)cc3c(=O)c2c1 | 1.29 | 1.38 | 0.959 | 1.36 | 1.36 | 0.825 | 1.4 | 1.17 | 0.96 | 0.935 | 0.693 | 0.381 | 0.844 | 0.753 | 0.389 | 0.831 | 0.806 | 0.343
Nc1nc(Nc2ccc3c(c2)CCC(N2CCCC2)CC3)nn1-c1cc2c(nn1)-c1ccccc1CCC2 (stereo not drawn) | 1.21 | 1.1 | -0.19 | 1.14 | 1.05 | -0.192 | 1.28 | 0.912 | -0.168 | 0.977 | 1.1 | 0.598 | 0.968 | 0.969 | 0.472 | 0.955 | 0.95 | 0.626
CCCCOc1c(C(=O)c2c(F)cc(C)cc2F)c[nH]c2nncc1-2 | 1.24 | 0.998 | 0.326 | 1.74 | 1.3 | 0.277 | 0.849 | 0.87 | 0.221 | 0.817 | 1.24 | 0.973 | 1.16 | 1.21 | 1.17 | 1.18 | 1.27 | 0.545
NC(=O)Nc1sc(-c2ccc(F)cc2)cc1C(N)=O | 1.2 | 1.25 | 0.779 | 1.16 | 1.19 | 0.938 | 1.17 | 0.623 | 0.777 | 1 | 1.06 | 0.914 | 0.929 | 1.04 | 1 | 1.02 | 1.06 | 0.934
CNC(=O)c1ccccc1Sc1ccc2c(/C=C/c3ccccn3)n[nH]c2c1 [Axitinib] | 1.09 ± 0.18 | 1.47 ± 0.79 | 0.811 ± 0.14 | 1.15 ± 0.42 | 0.9841 ± 0.005 | 0.618 ± 0.041 | 0.89 ± 0.028 | 1 ± 0.061 | 0.633 ± 0.14 | 0.952 ± 0.13 | 0.889 ± 0.072 | 0.779 ± 0.061 | 0.91 ± 0.026 | 0.91 ± 0.074 | 0.718 ± 0.059 | 1.01 ± 0.12 | 0.907 ± 0.12 | 0.729 ± 0.15
O=C1Nc2ccccc2/C1=C1/Nc2ccccc2C1=O [Indirubin] | 0.855 ± 0.13 | 0.814 ± 0.2 | 1.11 ± 0.23 | 0.967 ± 0.45 | 0.886 ± 0.24 | 0.848 ± 0.31 | 0.874 ± 0.032 | 0.776 ± 0.061 | 0.886 ± 0.5 | 1.06 ± 0.044 | 1.03 ± 0.089 | 0.977 ± 0.065 | 1.05 ± 0.055 | 1.04 ± 0.14 | 1.02 ± 0.014 | 0.997 ± 0.011 | 1.09 ± 0.071 | 0.767 ± 0.33
CCCCCCCCCCCCc1ccc(S(=O)(=O)Nc2nncs2)cc1 | 1.28 | 1.53 | 1.57 | 1.96 | 1.31 | 1.26 | 0.615 | 1.41 | 1.44 | 1.14 | 1.16 | 0.969 | 0.656 | 1.05 | 1.04 | 0.567 | 1.1 | 0.974
Nc1nc(Cl)nc2c1ncn2[C@@H]1O[C@H](CO)[C@@H](O)[C@@H]1F [Clofarabine] | 1.07 | 0.575 | 0.43 | 0.946 | 0.357 | 0.264 | 0.962 | 0.532 | 0.445 | 1.01 | 0.794 | 0.669 | 0.914 | 0.968 | 0.815 | 1.05 | 0.908 | 0.803
Cc1c(NC(=O)c2ccc(C(C)(C)C)cc2)cccc1-c1cn(C)c(=O)c(Nc2ccc(C(=O)N3CCOCC3)cc2)n1 | 1.4 | 1.75 | 1.04 | 1.36 | 1.47 | 1.34 | 1.31 | 1.42 | 1.09 | 1.1 | 0.975 | 0.766 | 1.12 | 1.01 | 0.725 | 1.02 | 0.981 | 0.745
O=S(=O)(NCCNC/C=C/c1ccc(Br)cc1)c1cccc2cnccc12 | 1.44 | 1.46 | 1.82 | 1.88 | 1.35 | 1.46 | 1.19 | 0.677 | 1.43 | 1.08 | 1.15 | 0.939 | 0.738 | 1.01 | 0.974 | 0.986 | 1.11 | 0.946
CC(C)(C)c1nc(-c2cccc(NS(=O)(=O)c3c(F)cccc3F)c2F)c(-c2ccnc(N)n2)s1 | 1.17 ± 0.14 | 1.236 ± 0.0019 | 1.03 ± 0.26 | 1.18 ± 0.083 | 1.08 ± 0.078 | 0.8223 ± 0.0058 | 1.362 ± 0.01 | 1.09 ± 0.052 | 0.953 ± 0.19 | 1.01 ± 0.029 | 1.01 ± 0.024 | 0.954 ± 0.092 | 0.976 ± 0.054 | 1.01 ± 0.067 | 0.635 ± 0.19 | 1.007 ± 0.0076 | 0.997 ± 0.056 | 0.878 ± 0.17
Cc1ccc(C(=O)Nc2cccc(C(F)(F)F)c2)cc1Nc1nc(-c2cccnc2)nc2c1cnn2C | 1.16 | 1.18 | 0.53 | 0.848 | 0.967 | 0.519 | 1.14 | 1.11 | 0.476 | 0.767 | 0.598 | 0.77 | 0.641 | 0.94 | 0.856 | 0.572 | 1.11 | 0.774
Oc1cccc(-c2nc(N3CCOCC3)c3oc4ncccc4c3n2)c1 | 1.17 | 0.813 | 0.451 | 1.07 | 0.646 | 0.379 | 0.916 | 0.729 | 0.344 | 0.884 | 0.844 | 0.68 | 0.818 | 0.943 | 0.777 | 0.838 | 0.732 | 0.644
CCCS(=O)(=O)Nc1ccc(F)c(C(=O)c2c[nH]c3ncc(-c4ccc(Cl)cc4)cc23)c1F [Vemurafenib (PLX4032, RG7204)] | 1.41 | 1.46 | 1.54 | 1.99 | 1.27 | 1.13 | 1.36 | 1.19 | 1.24 | 1.2 | 1.13 | 0.855 | 1.08 | 1.04 | 0.798 | 1.01 | 0.637 | 0.874
O=c1c(O)c(-c2ccc(O)c(O)c2)oc2cc(O)cc(O)c12 [Quercetin] | 0.94 | 1.31 | 0.776 | 0.993 | 0.866 | 1.06 | 1.2 | 1.18 | 0.875 | 1.03 | 1.12 | 0.908 | 1.04 | 1.02 | 0.918 | 1.05 | 1.04 | 0.86
CC(=O)O[C@@]12CO[C@@H]1C[C@H](O)[C@@]1(C)C(=O)[C@H](O)C3=C(C)[C@@H](OC(=O)[C@H](O)[C@@H](NC(=O)OC(C)(C)C)c4ccccc4)C[C@@](O)([C@@H](OC(=O)c4ccccc4)[C@H]21)C3(C)C [Docetaxel (Taxotere)] | 0 | -0.0584 | 0.00987 | -0.29 | -0.301 | -0.173 | -0.0867 | -0.155 | -0.0643 | 0.891 | 0.833 | 0.754 | 0.904 | 0.817 | 0.904 | 0.941 | 0.809 | 0.879
CC(C)NCC(O)COc1ccc(COCCOC(C)C)cc1 (stereo not drawn) [Bisoprolol fumarate] | 1.32 | 1.03 | 1.1 | 1.05 | 1.25 | 1.12 | 1.14 | 0.95 | 1.14 | 1.1 | 1.02 | 1.02 | 0.963 | 1.03 | 1.03 | 1.07 | 1.02 | 1.06
CC(C)(C)c1cc(NC(=O)Nc2ccc(-c3cn4c(n3)sc3cc(OCCN5CCOCC5)ccc34)cc2)no1 [Quizartinib (AC220)] | 1.28 | 1.18 | 1.56 | 1.98 | 1.42 | 1.22 | 0.551 | 1.25 | 1.45 | 1.32 | 0.574 | 1.11 | 0.738 | 0.944 | 0.721 | 0.631 | 1.1 | 0.509
COc1cc(Nc2nc3ccccc3nc2NS(=O)(=O)c2ccc(NC(=O)c3ccc(C)c(OC)c3)cc2)cc(OC)c1 | 1.3 | 1.14 | 0.99 | 1.98 | 1.18 | 0.922 | 1.08 | 1.17 | 1.06 | 1.13 | 1.06 | 0.963 | 1.08 | 1.09 | 0.722 | 1.1 | 1.13 | 1.05
O=c1cc(N2CCOCC2)oc2c(-c3ccccc3)cccc12 | 1.48 | 1.64 | 0.872 | 1.41 | 1.26 | 0.827 | 1.22 | 1.35 | 0.812 | 0.983 | 0.975 | 0.97 | 0.99 | 0.903 | 0.947 | 0.916 | 0.922 | 0.954
Cc1cnc(-c2cnc(NCCNc3ccc(C#N)cn3)nc2-c2ccc(Cl)cc2Cl)[nH]1 | 1.31 and 1.04 | 1.44 and 1.41 | 0.703 and 0.973 | 1.9 and 1.09 | 1.26 and 1.25 | 1.24 and 1.29 | 0.478 and 1.08 | 1.35 and 1.32 | 1.4 and 0.93 | 1.15 and 0.903 | 1.07 and 0.989 | 0.917 and 1.01 | 0.562 and 1.01 | 1.02 and 1.03 | 0.559 and 1.02 | 0.971 and 1.01 | 1.15 and 0.981 | 0.974 and 1.09
COc1c(C)c(C(=O)c2ccc(N)c(C(=O)O)c2)n2ccccc12 | 1.29 | 1.75 | 1.27 | 1.29 | 1.4 | 1.56 | 1.26 | 1.47 | 1.52 | 0.99 | 0.966 | 1.01 | 1.09 | 1.03 | 1.03 | 0.971 | 0.995 | 1.01
COc1cc2nccc(Oc3ccc(NC(=O)C4(C(=O)Nc5ccc(F)cc5)CC4)cc3)c2cc1OC [Cabozantinib malate (XL184)] | 1.3 | 1.64 | 0.529 | 1.47 | 1.36 | 0.606 | 1.29 | 1.37 | 0.634 | 1.03 | 0.94 | 0.897 | 1.05 | 1.06 | 0.911 | 0.973 | 0.97 | 0.836

Record cards, as listed above. Order of values: cell viability (MDA-MB-231 GLI1; 0.05 µM)	cell viability (MDA-MB-231 GLI1; 0.5 µM)	cell viability (MDA-MB-231 GLI1; 5 µM)	cell viability (MDA-MB-231 Vector; 0.05 µM)	cell viability (MDA-MB-231 Vector; 0.5 µM)	cell viability (MDA-MB-231 Vector; 5 µM)	cell viability (MDA-MB-231 tGLI1; 0.05 µM)	cell viability (MDA-MB-231 tGLI1; 0.5 µM)	cell viability (MDA-MB-231 tGLI1; 5 µM)	cell viability (MDA-MB-231BRM GLI1; 0.05 µM)	cell viability (MDA-MB-231BRM GLI1; 0.5 µM)	cell viability (MDA-MB-231BRM GLI1; 5 µM)	cell viability (MDA-MB-231BRM Vector; 0.05 µM)	cell viability (MDA-MB-231BRM Vector; 0.5 µM)	cell viability (MDA-MB-231BRM Vector; 5 µM)	cell viability (MDA-MB-231BRM tGLI1; 0.05 µM)	cell viability (MDA-MB-231BRM tGLI1; 0.5 µM)	cell viability (MDA-MB-231BRM tGLI1; 5 µM)
NC(=O)Nc1sc(-c2ccc(F)cc2)cc1C(N)=O is entered as 1.2	1.25	0.779	1.16	1.19	0.938	1.17	0.623	0.777	1	1.06	0.914	0.929	1.04	1	1.02	1.06	0.934
CCCCOc1c(C(=O)c2c(F)cc(C)cc2F)c[nH]c2nncc1-2 is entered as 1.24	0.998	0.326	1.74	1.3	0.277	0.849	0.87	0.221	0.817	1.24	0.973	1.16	1.21	1.17	1.18	1.27	0.545
